Experimental data reported in the supplement of paper PMC10849652.
Some of the results follow.

Sequences of proteins named here, by UniProt entry; tags and fusion partners are left off. A change or cut given only in a name is not applied to a line headed by its entry.
UniProt P13667: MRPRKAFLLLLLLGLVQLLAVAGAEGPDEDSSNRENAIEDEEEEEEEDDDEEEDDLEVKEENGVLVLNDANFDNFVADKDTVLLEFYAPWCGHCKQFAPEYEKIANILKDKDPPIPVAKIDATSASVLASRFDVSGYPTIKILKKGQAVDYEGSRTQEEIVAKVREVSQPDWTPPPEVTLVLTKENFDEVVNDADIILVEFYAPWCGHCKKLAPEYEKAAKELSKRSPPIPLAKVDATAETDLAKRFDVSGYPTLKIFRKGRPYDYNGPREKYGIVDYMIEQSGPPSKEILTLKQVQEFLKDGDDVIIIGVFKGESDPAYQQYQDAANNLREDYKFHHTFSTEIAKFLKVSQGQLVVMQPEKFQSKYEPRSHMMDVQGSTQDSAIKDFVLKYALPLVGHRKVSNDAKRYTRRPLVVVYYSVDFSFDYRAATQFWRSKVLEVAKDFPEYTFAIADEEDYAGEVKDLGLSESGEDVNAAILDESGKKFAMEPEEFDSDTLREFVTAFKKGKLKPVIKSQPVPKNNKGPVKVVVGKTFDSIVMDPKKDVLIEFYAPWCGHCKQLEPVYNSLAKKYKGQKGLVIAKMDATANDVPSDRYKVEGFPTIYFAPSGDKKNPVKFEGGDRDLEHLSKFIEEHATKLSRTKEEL
UniProt Q15366, whole entry, looked up: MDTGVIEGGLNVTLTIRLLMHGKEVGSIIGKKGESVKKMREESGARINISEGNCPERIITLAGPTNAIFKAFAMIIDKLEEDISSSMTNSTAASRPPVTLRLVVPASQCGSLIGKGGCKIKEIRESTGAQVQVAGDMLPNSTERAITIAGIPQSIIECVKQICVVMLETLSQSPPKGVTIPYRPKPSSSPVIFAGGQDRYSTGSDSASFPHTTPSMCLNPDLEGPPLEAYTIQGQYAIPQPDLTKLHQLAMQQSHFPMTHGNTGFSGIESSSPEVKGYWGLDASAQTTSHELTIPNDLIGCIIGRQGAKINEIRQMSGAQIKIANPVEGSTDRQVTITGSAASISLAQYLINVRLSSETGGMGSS
UniProt Q15365, whole entry, looked up: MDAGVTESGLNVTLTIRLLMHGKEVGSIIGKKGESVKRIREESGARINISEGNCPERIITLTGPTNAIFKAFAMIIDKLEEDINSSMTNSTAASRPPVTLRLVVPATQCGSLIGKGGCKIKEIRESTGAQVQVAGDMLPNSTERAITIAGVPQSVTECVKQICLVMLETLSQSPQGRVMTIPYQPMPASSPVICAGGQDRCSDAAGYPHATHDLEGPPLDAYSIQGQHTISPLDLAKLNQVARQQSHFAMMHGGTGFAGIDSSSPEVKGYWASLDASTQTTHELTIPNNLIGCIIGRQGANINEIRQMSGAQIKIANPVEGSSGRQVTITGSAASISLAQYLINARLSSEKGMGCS
UniProt O60825: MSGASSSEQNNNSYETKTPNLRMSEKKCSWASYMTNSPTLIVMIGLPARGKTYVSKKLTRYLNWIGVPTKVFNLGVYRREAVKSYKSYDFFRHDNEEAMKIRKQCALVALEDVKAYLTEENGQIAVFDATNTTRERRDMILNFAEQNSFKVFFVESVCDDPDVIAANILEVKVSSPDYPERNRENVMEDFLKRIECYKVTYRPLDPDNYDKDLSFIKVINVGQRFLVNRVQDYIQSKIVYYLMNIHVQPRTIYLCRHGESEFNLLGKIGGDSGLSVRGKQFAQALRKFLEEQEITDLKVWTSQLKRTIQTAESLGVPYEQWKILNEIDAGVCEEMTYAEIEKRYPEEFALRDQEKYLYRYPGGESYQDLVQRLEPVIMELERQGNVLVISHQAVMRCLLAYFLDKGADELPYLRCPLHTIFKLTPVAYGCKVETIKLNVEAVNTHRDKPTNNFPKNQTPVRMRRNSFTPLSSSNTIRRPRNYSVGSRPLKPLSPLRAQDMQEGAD
UniProt Q53EL6: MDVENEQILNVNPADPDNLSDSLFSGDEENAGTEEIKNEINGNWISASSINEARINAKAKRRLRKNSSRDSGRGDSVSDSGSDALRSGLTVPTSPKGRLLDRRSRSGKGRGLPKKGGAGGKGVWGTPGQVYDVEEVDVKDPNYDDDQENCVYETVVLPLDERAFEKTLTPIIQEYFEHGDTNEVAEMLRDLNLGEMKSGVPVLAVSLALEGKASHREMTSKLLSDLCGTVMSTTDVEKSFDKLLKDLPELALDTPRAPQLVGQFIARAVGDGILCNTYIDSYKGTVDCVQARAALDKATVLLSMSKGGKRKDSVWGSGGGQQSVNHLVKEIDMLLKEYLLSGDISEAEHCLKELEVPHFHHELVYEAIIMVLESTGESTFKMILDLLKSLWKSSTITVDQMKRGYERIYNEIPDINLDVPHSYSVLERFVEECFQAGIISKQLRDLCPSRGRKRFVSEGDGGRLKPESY
UniProt P56645: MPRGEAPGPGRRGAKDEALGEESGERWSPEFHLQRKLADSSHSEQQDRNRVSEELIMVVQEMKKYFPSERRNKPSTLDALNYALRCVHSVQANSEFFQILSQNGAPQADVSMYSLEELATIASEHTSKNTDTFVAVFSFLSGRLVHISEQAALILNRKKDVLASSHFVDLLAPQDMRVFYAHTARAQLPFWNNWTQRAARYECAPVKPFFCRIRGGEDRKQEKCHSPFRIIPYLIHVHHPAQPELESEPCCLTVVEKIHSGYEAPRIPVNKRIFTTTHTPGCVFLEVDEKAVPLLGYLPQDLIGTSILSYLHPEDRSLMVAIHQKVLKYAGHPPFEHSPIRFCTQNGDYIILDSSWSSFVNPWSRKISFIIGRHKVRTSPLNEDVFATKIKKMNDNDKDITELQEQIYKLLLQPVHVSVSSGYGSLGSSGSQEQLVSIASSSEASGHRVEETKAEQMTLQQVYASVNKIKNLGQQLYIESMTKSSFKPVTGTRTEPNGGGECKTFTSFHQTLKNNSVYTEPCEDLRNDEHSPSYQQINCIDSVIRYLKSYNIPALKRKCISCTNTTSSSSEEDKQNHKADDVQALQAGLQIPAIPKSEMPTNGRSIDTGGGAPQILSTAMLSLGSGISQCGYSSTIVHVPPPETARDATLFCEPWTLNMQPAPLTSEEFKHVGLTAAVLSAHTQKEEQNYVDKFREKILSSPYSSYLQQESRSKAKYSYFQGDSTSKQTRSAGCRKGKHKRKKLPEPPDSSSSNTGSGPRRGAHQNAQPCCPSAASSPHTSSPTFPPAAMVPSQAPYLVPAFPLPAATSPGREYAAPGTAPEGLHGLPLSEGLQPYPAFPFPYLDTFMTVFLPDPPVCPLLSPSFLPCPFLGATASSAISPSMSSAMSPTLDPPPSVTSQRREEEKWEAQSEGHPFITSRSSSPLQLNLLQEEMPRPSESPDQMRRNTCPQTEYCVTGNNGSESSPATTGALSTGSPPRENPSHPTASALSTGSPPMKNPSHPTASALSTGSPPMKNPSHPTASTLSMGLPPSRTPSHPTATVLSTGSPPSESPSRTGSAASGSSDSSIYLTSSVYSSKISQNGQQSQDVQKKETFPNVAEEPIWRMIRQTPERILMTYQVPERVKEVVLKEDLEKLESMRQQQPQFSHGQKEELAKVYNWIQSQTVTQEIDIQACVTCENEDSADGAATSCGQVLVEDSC
UniProt P05166: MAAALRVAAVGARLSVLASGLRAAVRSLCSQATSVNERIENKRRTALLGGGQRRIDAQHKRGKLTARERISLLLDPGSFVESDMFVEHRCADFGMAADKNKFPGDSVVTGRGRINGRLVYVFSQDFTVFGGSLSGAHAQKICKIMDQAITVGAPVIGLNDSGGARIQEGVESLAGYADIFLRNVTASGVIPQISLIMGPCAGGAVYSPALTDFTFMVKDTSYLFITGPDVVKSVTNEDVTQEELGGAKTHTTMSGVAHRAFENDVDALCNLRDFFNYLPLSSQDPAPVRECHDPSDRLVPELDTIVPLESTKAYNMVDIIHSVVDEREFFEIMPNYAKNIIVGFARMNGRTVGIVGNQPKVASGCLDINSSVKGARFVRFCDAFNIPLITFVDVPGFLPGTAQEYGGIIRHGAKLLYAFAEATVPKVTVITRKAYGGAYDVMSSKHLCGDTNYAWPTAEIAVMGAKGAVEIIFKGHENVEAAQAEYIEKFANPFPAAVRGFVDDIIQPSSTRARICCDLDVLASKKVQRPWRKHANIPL
UniProt Q9NR12, whole entry, looked up: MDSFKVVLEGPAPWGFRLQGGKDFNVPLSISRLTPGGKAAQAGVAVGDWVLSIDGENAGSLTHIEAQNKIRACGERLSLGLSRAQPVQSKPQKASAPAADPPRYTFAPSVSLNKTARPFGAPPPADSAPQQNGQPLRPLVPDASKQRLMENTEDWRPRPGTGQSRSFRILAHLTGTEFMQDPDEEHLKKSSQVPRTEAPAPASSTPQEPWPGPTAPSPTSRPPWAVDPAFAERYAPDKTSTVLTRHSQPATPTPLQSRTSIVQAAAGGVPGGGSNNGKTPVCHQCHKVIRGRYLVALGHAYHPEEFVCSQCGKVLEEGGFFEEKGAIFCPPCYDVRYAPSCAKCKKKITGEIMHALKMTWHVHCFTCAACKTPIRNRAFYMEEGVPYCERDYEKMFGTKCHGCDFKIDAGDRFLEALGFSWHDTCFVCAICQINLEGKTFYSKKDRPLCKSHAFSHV
UniProt Q8N0Y7: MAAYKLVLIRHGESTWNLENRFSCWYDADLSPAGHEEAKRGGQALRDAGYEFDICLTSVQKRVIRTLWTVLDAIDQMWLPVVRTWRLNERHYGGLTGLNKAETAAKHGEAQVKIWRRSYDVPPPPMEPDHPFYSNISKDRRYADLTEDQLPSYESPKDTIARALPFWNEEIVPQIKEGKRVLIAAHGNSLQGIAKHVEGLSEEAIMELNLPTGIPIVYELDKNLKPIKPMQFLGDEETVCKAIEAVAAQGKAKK
UniProt P08559, whole entry, looked up: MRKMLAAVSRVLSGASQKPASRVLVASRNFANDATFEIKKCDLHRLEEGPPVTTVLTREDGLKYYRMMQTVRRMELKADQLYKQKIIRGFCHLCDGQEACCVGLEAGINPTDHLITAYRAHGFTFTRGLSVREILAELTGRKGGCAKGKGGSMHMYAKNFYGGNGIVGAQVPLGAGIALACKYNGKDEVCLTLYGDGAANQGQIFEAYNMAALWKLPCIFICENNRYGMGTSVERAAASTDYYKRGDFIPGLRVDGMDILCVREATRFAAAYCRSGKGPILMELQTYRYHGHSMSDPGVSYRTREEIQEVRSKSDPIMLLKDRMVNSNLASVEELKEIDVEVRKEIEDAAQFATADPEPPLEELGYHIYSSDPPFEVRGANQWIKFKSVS
UniProt Q5JVF3: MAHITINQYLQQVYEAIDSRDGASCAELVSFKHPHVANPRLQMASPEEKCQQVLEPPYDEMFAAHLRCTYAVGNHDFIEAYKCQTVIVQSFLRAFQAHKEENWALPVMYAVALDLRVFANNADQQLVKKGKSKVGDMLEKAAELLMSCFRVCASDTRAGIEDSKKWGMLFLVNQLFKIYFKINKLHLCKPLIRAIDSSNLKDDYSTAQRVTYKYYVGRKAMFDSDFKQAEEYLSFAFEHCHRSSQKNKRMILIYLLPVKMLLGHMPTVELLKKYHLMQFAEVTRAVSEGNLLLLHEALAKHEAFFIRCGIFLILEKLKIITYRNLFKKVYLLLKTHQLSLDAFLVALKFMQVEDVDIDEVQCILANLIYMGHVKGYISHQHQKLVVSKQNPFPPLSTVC
UniProt Q5EBL8: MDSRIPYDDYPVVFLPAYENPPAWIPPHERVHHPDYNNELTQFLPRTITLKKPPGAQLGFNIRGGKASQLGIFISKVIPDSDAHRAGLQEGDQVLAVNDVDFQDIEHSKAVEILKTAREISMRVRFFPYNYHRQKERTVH
UniProt P12004, whole entry, looked up: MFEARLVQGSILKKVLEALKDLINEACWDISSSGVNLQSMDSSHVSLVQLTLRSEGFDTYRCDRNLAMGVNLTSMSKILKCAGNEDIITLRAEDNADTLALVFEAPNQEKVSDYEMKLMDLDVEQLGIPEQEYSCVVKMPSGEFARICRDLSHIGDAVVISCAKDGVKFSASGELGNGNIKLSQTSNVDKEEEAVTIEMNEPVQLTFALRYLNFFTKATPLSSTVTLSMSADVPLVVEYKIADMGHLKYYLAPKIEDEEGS
UniProt Q15121, whole entry, looked up: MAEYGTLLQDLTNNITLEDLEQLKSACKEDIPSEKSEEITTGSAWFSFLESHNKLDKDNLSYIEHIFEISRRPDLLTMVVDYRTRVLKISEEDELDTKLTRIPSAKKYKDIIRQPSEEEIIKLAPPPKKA

Key:
Test in all cases: log2 fold change, soluble protein after heating vs DMSO (PISA); higher = thermal stabilisation; K562 lysate, 10 uM; active = over 0.2 and 3.5 SD of the protein, either way, in both replicates (recomputed)
ibrutinib = compound: C=CC(=O)N1CCC[C@@H](n2nc(-c3ccc(Oc4ccccc4)cc3)c3c(N)ncnc32)C1 [ibrutinib]
Summary of the method: (§1)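 Quantification was by TMTpro 16plex LC-MS/MS with equalised channel sums, applied to the supernatant after 21,000xg for 90 min. Samples were crude K562 extract at 1 mg/mL protein in PBS pH 7.4 with 1 mM MgCl2, treated with 10 μM compound for 30 min, heated for 3 min across 48°C-58°C, pooled and brought to 0.5% NP-40 at 4°C. Values are log-two fold changes in thermal stability relative to solvent controls, from duplicates.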

[1] = compound: CC(=O)c1cnc2ccc(-c3cc(Cl)c(O)c(Cl)c3)nc2c1N[C@H]1CC[C@H](CN(C)C)CC1
Summary of the method: as §1

ralimetinib = compound: CC(C)(C)Cn1c(N)nc2ccc(-c3[nH]c(C(C)(C)C)nc3-c3ccc(F)cc3)nc21 [ralimetinib]
Summary of the method: as §1

[2] = compound: CC(C)(O)CC(=O)NCCn1ccc2ncnc(Nc3ccc(Oc4cccc(C(F)(F)F)c4)c(Cl)c3)c21
Summary of the method: as §1

[3] = compound: CC(C)C1=C2N=C(C=C(N2N=C1)NCC3=CC=CC=C3)NCCCCCCN
Summary of the method: as §1

[4] = compound: CC1=C(C(CC(=O)N1)C2=CC=C(C=C2)C(F)(F)F)C(=O)NC3=C(C=C4C(=C3)C=NN4)F
Summary of the method: as §1

[5] = compound: CC1=C(C2=C(C=C1)C(=O)C3=CC=CC=C3N2CCCN)C
Summary of the method: as §1

[6] = compound: CC1=C(C=C(C=C1)NC(=O)C2=CC(=CC=C2)C(C)(C)C#N)NC3=CC4=C(C=C3)N=CN(C4=O)C
Summary of the method: as §1

[7] = compound: CC1=C(C=C(C=C1)NC(=O)C2=CC(=CC=C2)N(C)C)NC(=O)C3=CC=C(C=C3)O
Summary of the method: as §1

[8] = compound: CC1=CC=C(C=C1)SC2=C3C=C(SC3=CN=C2)C(=O)N
Summary of the method: as §1

vemurafenib = compound: CCCS(=O)(=O)Nc1ccc(F)c(C(=O)c2c[nH]c3ncc(-c4ccc(Cl)cc4)cc23)c1F [vemurafenib]
Summary of the method: as §1

[9] = compound: CCCS(=O)(=O)Nc1ccc(F)c(C(=O)c2c[nH]c3ncc(Cl)cc23)c1F
Summary of the method: as §1

barasertib = compound: CCN(CCCOc1ccc2c(Nc3cc(CC(=O)Nc4cccc(F)c4)[nH]n3)ncnc2c1)CCOP(=O)(O)O [barasertib]
Summary of the method: as §1

[10] = compound: CC[C@@H]1C(=O)N(C)c2cnc(Nc3ccc(C(=O)NC4CCN(C)CC4)cc3OC)nc2N1C1CCCC1
Summary of the method: as §1

volasertib = compound: CC[C@@H]1C(=O)N(C)c2cnc(Nc3ccc(C(=O)N[C@H]4CC[C@H](N5CCN(CC6CC6)CC5)CC4)cc3OC)nc2N1C(C)C [volasertib]
Summary of the method: as §1

[11] = compound: CCn1c(C(=O)N(C2CC2)C2CC2)cc2c3c(ncn3C)c(Nc3cc(C)n(C)n3)nc21
Summary of the method: as §1

[12] = compound: CCn1cc(-c2ccnc3[nH]c(-c4cccc(CN(C)C)c4)cc23)c(-c2ccc(NC(=O)N(C)C)cc2)n1
Summary of the method: as §1

[13] = compound: CN1CCC(CNc2ccc3ncc(-c4cccc(OC(F)(F)F)c4)n3n2)CC1
Summary of the method: as §1

saracatinib = compound: CN1CCN(CCOc2cc(OC3CCOCC3)c3c(Nc4c(Cl)ccc5c4OCO5)ncnc3c2)CC1 [saracatinib]
Summary of the method: as §1

sotrastaurin = compound: CN1CCN(c2nc(C3=C(c4c[nH]c5ccccc45)C(=O)NC3=O)c3ccccc3n2)CC1 [sotrastaurin]
Summary of the method: as §1

Measured: log2 fold change

PDIA4 (UniProt P13667)
inactive: ibrutinib 0.006 | [1] -0.008 | ralimetinib -0.016 | [2] 0.011 | [3] 0.001 | [4] -0.01 | [5] 0.021 | [6] -0.038 | [7] 0.011 | [8] 0.007 | vemurafenib -0.007 | [9] -0.02 | barasertib -0.028 | [10] 0.017 | volasertib 0.012 | [11] -0.008 | [12] 0.036 | [13] -0.045 | saracatinib 0.012 | sotrastaurin 0

PCBP2 isoform 8 (UniProt Q15366)
inactive: ibrutinib 0.15 | [1] 0.003 | ralimetinib -0.003 | [2] -0.041 | [3] -0.005 | [4] -0.011 | [5] -0.007 | [6] 0.071 | [7] -0.05 | [8] -0.043 | vemurafenib 0.078 | [9] 0.051 | barasertib 0.016 | [10] 0.001 | volasertib -0.05 | [11] -0.152 | [12] 0.054 | [13] -0.003 | saracatinib -0.018 | sotrastaurin -0.045

PECAM1 (UniProt P16284)
inactive: ibrutinib 0.024 | [1] 0 | ralimetinib 0.003 | [2] -0.008 | [3] -0.025 | [4] -0.02 | [5] 0.032 | [6] 0.055 | [7] -0.035 | [8] -0.025 | vemurafenib 0.007 | [9] 0.035 | barasertib 0.074 | [10] 0.033 | volasertib 0.024 | [11] -0.019 | [12] -0.043 | [13] 0.071 | saracatinib 0.018 | sotrastaurin -0.002

PCBP1 (UniProt Q15365)
inactive: ibrutinib 0.022 | [1] 0.012 | ralimetinib -0.015 | [2] -0.014 | [3] 0.005 | [4] -0.051 | [5] -0.022 | [6] 0.061 | [7] -0.014 | [8] -0.021 | vemurafenib 0.017 | [9] 0.027 | barasertib -0.017 | [10] 0.038 | volasertib 0.001 | [11] -0.027 | [12] 0.029 | [13] 0.054 | saracatinib 0.012 | sotrastaurin -0.024

Random excerpt: 2 entries already listed.
PCBP2 isoform 8 (UniProt Q15366)
inactive: ibrutinib 0.15 | [1] 0.003 | ralimetinib -0.003 | [2] -0.041 | [3] -0.005 | [4] -0.011 | [5] -0.007 | [6] 0.071 | [7] -0.05 | [8] -0.043 | vemurafenib 0.078 | [9] 0.051 | barasertib 0.016 | [10] 0.001 | volasertib -0.05 | [11] -0.152 | [12] 0.054 | [13] -0.003 | saracatinib -0.018 | sotrastaurin -0.045

PECAM1 (UniProt P16284)
inactive: ibrutinib 0.024 | [1] 0 | ralimetinib 0.003 | [2] -0.008 | [3] -0.025 | [4] -0.02 | [5] 0.032 | [6] 0.055 | [7] -0.035 | [8] -0.025 | vemurafenib 0.007 | [9] 0.035 | barasertib 0.074 | [10] 0.033 | volasertib 0.024 | [11] -0.019 | [12] -0.043 | [13] 0.071 | saracatinib 0.018 | sotrastaurin -0.002

More results follow:

PFKFB2 (UniProt O60825)
inactive: ibrutinib -0.007 | [1] -0.014 | ralimetinib 0.035 | [2] -0.017 | [3] -0.016 | [4] 0.006 | [5] -0.001 | [6] -0.013 | [7] -0.011 | [8] -0.001 | vemurafenib -0.011 | [9] 0.011 | barasertib 0.008 | [10] 0.004 | volasertib -0.025 | [11] 0.015 | [12] -0.021 | [13] -0.029 | saracatinib 0.012 | sotrastaurin 0.002

PDCD4 (UniProt Q53EL6)
inactive: ibrutinib -0.002 | [1] -0.002 | ralimetinib 0.025 | [2] -0.032 | [3] 0.007 | [4] 0.025 | [5] -0.003 | [6] 0.032 | [7] 0.007 | [8] 0.011 | vemurafenib 0.014 | [9] 0.02 | barasertib 0.024 | [10] -0.023 | volasertib -0.03 | [11] 0.029 | [12] -0.029 | [13] -0.013 | saracatinib 0.009 | sotrastaurin 0.001

PASK (UniProt Q96RG2)
inactive: ibrutinib 0.007 | [1] 0.154 | ralimetinib 0.004 | [2] -0.008 | [3] -0.002 | [4] 0.012 | [5] 0.035 | [6] -0.014 | [7] 0.013 | [8] 0.043 | vemurafenib -0.081 | [9] 0.021 | barasertib 0.001 | [10] 0 | volasertib -0.065 | [11] -0.013 | [12] -0.017 | [13] 0.037 | saracatinib -0.001 | sotrastaurin 0.109

PER3 isoform 2 (UniProt P56645)
inactive: ibrutinib 0.041 | [1] 0.007 | ralimetinib -0.012 | [2] -0.021 | [3] 0.01 | [4] 0.016 | [5] 0.031 | [6] -0.002 | [7] 0.019 | [8] -0.017 | vemurafenib -0.047 | [9] 0.047 | barasertib 0.084 | [10] -0.008 | volasertib -0.004 | [11] -0.021 | [12] -0.01 | [13] 0.024 | saracatinib -0.01 | sotrastaurin -0.006

PCCB (UniProt P05166)
inactive: ibrutinib -0.014 | [1] -0.004 | ralimetinib -0.018 | [2] -0.017 | [3] -0.028 | [4] -0.005 | [5] 0.023 | [6] 0.012 | [7] -0.003 | [8] -0.012 | vemurafenib 0.014 | [9] 0.019 | barasertib 0.007 | [10] 0.03 | volasertib -0.004 | [11] -0.008 | [12] -0.04 | [13] 0.06 | saracatinib 0.008 | sotrastaurin 0.005

PDLIM7 (UniProt Q9NR12)
inactive: ibrutinib 0.039 | [1] -0.004 | ralimetinib -0.02 | [2] -0.014 | [3] 0 | [4] -0.006 | [5] -0.008 | [6] 0.069 | [7] -0.019 | [8] -0.007 | vemurafenib 0.009 | [9] 0.006 | barasertib 0.027 | [10] 0.025 | volasertib -0.008 | [11] 0.009 | [12] -0.044 | [13] -0.005 | saracatinib -0.021 | sotrastaurin -0.023

PGAM4 (UniProt Q8N0Y7)
inactive: ibrutinib -0.029 | [1] 0.005 | ralimetinib 0.001 | [2] -0.014 | [3] 0.013 | [4] -0.03 | [5] 0.004 | [6] 0.016 | [7] -0.01 | [8] 0.012 | vemurafenib -0.012 | [9] -0.01 | barasertib -0.045 | [10] 0.068 | volasertib 0.051 | [11] -0.07 | [12] 0.012 | [13] 0.015 | saracatinib -0.012 | sotrastaurin -0.007

PDHA1 isoform 4 (UniProt P08559)
inactive: ibrutinib 0.024 | [1] -0.009 | ralimetinib 0.017 | [2] -0.006 | [3] 0.046 | [4] 0.016 | [5] -0.077 | [6] 0.024 | [7] -0.003 | [8] 0.016 | vemurafenib 0.002 | [9] 0.009 | barasertib 0.039 | [10] -0.008 | volasertib -0.054 | [11] 0.009 | [12] 0.195 | [13] -0.101 | saracatinib -0.066 | sotrastaurin -0.016

PCID2 (UniProt Q5JVF3)
inactive: ibrutinib 0.041 | [1] 0.023 | ralimetinib 0.03 | [2] -0.069 | [3] 0.024 | [4] 0.052 | [5] 0.013 | [6] -0.023 | [7] -0.003 | [8] -0.002 | vemurafenib 0.033 | [9] 0.052 | barasertib 0.063 | [10] -0.01 | volasertib -0.044 | [11] 0.031 | [12] 0.035 | [13] 0.005 | saracatinib 0.01 | sotrastaurin 0.036

PDZD11 isoform 2 (UniProt Q5EBL8)
inactive: ibrutinib 0.083 | [1] -0.011 | ralimetinib -0.009 | [2] -0.044 | [3] -0.018 | [4] -0.044 | [5] 0.016 | [6] 0.005 | [7] -0.022 | [8] 0.003 | vemurafenib -0.006 | [9] 0.02 | barasertib 0.129 | [10] 0.079 | volasertib 0.022 | [11] -0.04 | [12] -0.026 | [13] 0.004 | saracatinib 0.011 | sotrastaurin -0.014

PCNA (UniProt P12004)
inactive: ibrutinib -0.017 | [1] 0.005 | ralimetinib -0.016 | [2] 0.023 | [3] -0.032 | [4] -0.043 | [5] -0.001 | [6] -0.019 | [7] -0.015 | [8] 0.019 | vemurafenib 0.003 | [9] -0.023 | barasertib -0.049 | [10] -0.033 | volasertib 0.025 | [11] 0.003 | [12] -0.111 | [13] 0.092 | saracatinib -0.009 | sotrastaurin -0.013

PEA15 isoform 2 (UniProt Q15121)
inactive: ibrutinib 0.051 | [1] -0.047 | ralimetinib 0.005 | [2] -0.083 | [3] 0.023 | [4] -0.059 | [5] -0.007 | [6] 0.056 | [7] 0 | [8] -0.011 | vemurafenib -0.011 | [9] -0.014 | barasertib 0.077 | [10] 0.016 | volasertib 0.019 | [11] -0.001 | [12] -0.065 | [13] -0.044 | saracatinib -0.025 | sotrastaurin -0.026
